At least one peptide structure holds a part that was inferred or is arguable (an end, a ring closure or a residue). Some of these results come from one statement about several compounds together. Peptide text beside a SMILES is read from it.
Columns and labels:
[1] = test system: naïve or activated 8.3-CD8+ T cells; assay: Functional testing of NRP mimics (proliferation, cytokine secretion, cytotoxicity, antagonism); assay type: cell-based, mouse (8.3-TCRαβ-transgenic NOD)
Excerpt: To test the validity of this hypothesis, we produced mimics of NRP capable of engaging the 8.3-TCR (a TCR that is representative of the TCRs used by NRP-reactive CD8^+ T cells in the NOD mouse) with very low or very high affinity (when compared to NRP and NRP-A7). This was done by generating numerous single amino acid mutants of NRP (NRP mimics) and by testing the ability of each mutant to elicit proliferation, cytokine secretion and cytotoxicity of naïve or activated 8.3-CD8^+ T cells. Some of the NRP mimics that were unable to elicit the activation of naïve 8.3-CD8^+ T cells were tested for antagonism. Antagonist mimics are unable to elicit the functional activity of T cells but antagonized the agonistic activity of functional mimics (i.e. NRP and NRP-A7). […] Of these, NRP-A4 was the most powerful and was chosen for further experimentation. […] FIG. 15 compares the agonistic properties of all these peptides on naïve 8.3-CD8^+ T cells.
To test the validity of this hypothesis, we produced mimics of NRP capable of engaging the 8.3-TCR (a TCR that is representative of the TCRs used by NRP-reactive CD8^+ T cells in the NOD mouse) with very low or very high affinity (when compared to NRP and NRP-A7). This was done by generating numerous single amino acid mutants of NRP (NRP mimics) and by testing the ability of each mutant to elicit proliferation, cytokine secretion and cytotoxicity of naïve or activated 8.3-CD8^+ T cells. Some of the NRP mimics that were unable to elicit the activation of naïve 8.3-CD8^+ T cells were tested for antagonism. Antagonist mimics are unable to elicit the functional activity of T cells but antagonized the agonistic activity of functional mimics (i.e. NRP and NRP-A7). […] Peptide-induced responses are color-coded from low, medium, […], high and very high (blue, yellow, green and red, respectively). The data are representative of 3 different experiments.
Of these, NRP-A4 was the most powerful and was chosen for further experimentation. […] FIG. 15 compares the agonistic properties of all these peptides on naïve 8.3-CD8^+ T cells.

8.3-CD8+ T cells = assay: Repeated peptide administration to 8.3-TCRαβ-transgenic NOD mice; assay type: in vivo; conditions: repeated administration via i.p. and f.p. routes; unpublished data
[2] = test system: NRP-A7-reactive CD8+ T cells; assay: Islet-associated CD8+ T cells of peptide-treated NOD mice (tetramer staining, binding kinetics, cytotoxicity); assay type: in vivo; conditions: repeated injections, low dosage according to b141
Excerpt: (§1) To test whether the hypothesis could in fact predict the different outcomes outlined in Table I, we treated groups of NOD female mice with repeated injections of NRP-A4, NRP-I4 and NRP-V7, and followed the mice for development of spontaneous autoimmune diabetes. T cells were also harvested from the treated mice and tested with various ligand/MHC tetramers to determine the impact of the treatment on T cell populations. […] Since these cells have higher diabetogenic potential (see above), it is likely that their accumulation into islets is the single mechanism that accounts for the accelerated onset of diabetes seen in NRP-I4-treated mice.
To ascertain whether the NRP-A7 treatment had induced the deletion of NRP-A7-reactive CD8^+ T cells, we examined islets of peptide-treated, non-diabetic 32 wk-old mice for the presence of this T cell population. […] To determine whether this resulted from the absence of clonotypes bearing high affinity TCRs for NRP-A7, we compared the kinetics of NRP-A7 tetramer binding to CD8^+ T cells derived from peptide-treated mice. […] Since treatment with NRP-A7 also halted the progression from benign to pernicious islet inflammation, we concluded that development of IDDM in NOD mice requires the avidity maturation of the NRP-A7-reactive CD8^+ T cell population.
The effect of the peptides on T cell populations was also determined.

[3] = test system: splenic CD8+ T cells from NOD mice; assay: Tetramer staining of splenic CD8+ T cells from NOD mice; assay type: binding
[4] = test system: CD8+ T cells propagated from islets of acutely diabetic NOD mice; assay: Killing of peptide-pulsed RMA-SKd cells by islet-derived CD8+ T cell lines and clones; assay type: cell-based
Excerpt: To confirm that the islet associated CD8^+ T cells of most NOD mice contain clones capable of recognizing the NRP/Kd complex, we generated 31 CD8^+ CTL clones from islets of 9 NOD mice, and tested the clones' ability to kill NRP- or TUM-pulsed RMA-SKd cells. Of the 31 clones tested, 14 (45%) were cytotoxic against NRP-, but not TUM-pulsed, RMA-SKd targets (FIGS. 7B and C).

NOD mice = assay: Development of spontaneous autoimmune diabetes in peptide-treated NOD female mice; assay type: in vivo; conditions: repeated injections (100 μg in PBS i.p. in Example 6); low dosage according to b141
Excerpt: as §1, with “mice. […]” for “mice.”
The hypothesis put forth above predicted that, in vivo, each of these peptides would trigger T cells differently depending on the T cells' avidity for NRP. This is summarized in Table I. To test whether the hypothesis could in fact predict the different outcomes outlined in Table I, we treated groups of NOD female mice with repeated injections of NRP-A4, NRP-I4 and NRP-V7, and followed the mice for development of spontaneous autoimmune diabetes. […] Since these cells have higher diabetogenic potential (see above), it is likely that their accumulation into islets is the single mechanism that accounts for the accelerated onset of diabetes seen in NRP-I4-treated mice. […]

[5] = test system: 8.3-TCR on 8.3-CD8+ T cells; assay: Peptide/MHC tetramer binding to 8.3-CD8+ T cells; set-up: species or system mouse (8.3-TCRαβ-transgenic NOD)
Excerpt: To confirm that these peptides were recognized with different avidity by 8.3-CD8^+ T cells, we produced and tested peptide/MHC tetramers as previously described (39). A tetramer is preferably used in avidity determinations because tetramers bind more strongly than the corresponding monomers, while maintaining the same relative avidities when a plurality of ligands are compared. […] These peptides were recognized with different avidity not only by 8.3-CD8^+ T cells, but also by the polyclonal NRP-reactive CD8^+ T cells that can be propagated from the pancreatic islets of 20 wk-old NOD mice.
In order to follow the accumulation of antigen-specific CD8^+ T cells in islets of pre-diabetic NOD mice, we generated H-2Kd tetramers containing the peptides NRP, NRP-A7, TUM or INS [LYLVCGERG; an insulin-derived peptide recognized by islet-associated T cells from young NOD mice (38)]. The NRP and NRP-A7 tetramers stained virtually all the splenic CD8^+ T cells from 8.3-TCRαβ-transgenic NOD mice, but <1% of the splenic CD8^+ T cells from NOD mice. The INS tetramer stained the INS-reactive CTL clone G9C8 (38), but neither this tetramer nor the negative control tetramer (TUM) stained the splenic CD8^+ T cells from NOD or 8.3-TCRαβ-transgenic NOD mice (data not shown).
To confirm that these peptides were recognized with different avidity by 8.3-CD8^+ T cells, we produced and tested peptide/MHC tetramers. […] These peptides were recognized with different avidity not only by 8.3-CD8^+ T cells, but also by the polyclonal NRP-reactive CD8^+ T cells that can be propagated from the pancreatic islets of 20 wk-old NOD mice.

Compound	functional class of the peptide on 8.3-CD8+ T cells [1]	Function ([1]; Table I)	Function (of Function/Avidity) ([1]; Table II)	agonistic/antagonistic activity, comparative statement ([1]; naive 8.3-CD8+ T cells)	effect on 8.3-CD8+ T cells (8.3-CD8+ T cells)	NRP/NRP-A7 tetramer-reactive CD8+ T cells in islets of treated mice [2]	splenic CD8+ T cells stained by tetramer [3] [%]	islet-derived CD8+ T cell lines that killed peptide-pulsed RMA-SKd cells ([4]; 7 of 8 lines) [%]	islet-associated CD8+ T cell clones recognizing the peptide ([4]; reference 37) [%]	islet-associated CD8+ T cell lines recognizing the peptide ([4]; reference 37) [%]	development of IDDM/diabetes in treated NOD mice (NOD mice)	avidity class of the peptide [5]	Avidity (of Function/Avidity) ([5]; Table II)	avidity of tetramer binding to 8.3-CD8+ T cells ([5]; peptide/MHC tetramer, proportional to fluorescence intensity of stained T cells)	splenic CD8+ T cells stained by tetramer ([5]; splenic CD8+ T cells from 8.3-TCRαβ-transgenic NOD mice)
CC(C)C[C@H](NC(=O)[C@H](Cc1ccccc1)NC(=O)[C@H](Cc1c[nH]c2ccccc12)NC(=O)[C@H](CC(N)=O)NC(=O)[C@H](C)NC(=O)[C@H](CCCCN)NC(=O)[C@H](CC(N)=O)NC(=O)[C@H](Cc1ccc(O)cc1)NC(=O)[C@@H](N)CCCCN)C(=O)O [NRP, KYNKANWFL] (H-KYNKANWFL-OH; N-terminus and C-terminus assumed)	agonist	moderate agonist	agonist	same agonistic properties as the natural beta cell auto-antigen	induced the deletion of 8.3-CD8^+ T cells	greater numbers of NRP-A7 tetramer-reactive cells than control peptide-treated mice	< 1	87.5	45	87	slightly lower rate when compared to TUM-treated mice	intermediate avidity	intermediate	increased avidity	virtually all
KYNKANAFL [NRP-A7]	–	–	–	–	–	–	< 1	–	–	–	–	–	–	–	–

Source: US20030064413A1, “Compositions and methods useful in avidity therapy” (priority 2000, published 2003)
